Reference: US7767240B2, “Microbiological control in poultry processing” (priority 2001, dated 2010)

Assay: Skin pigmentation, Minolta Color Meter (Example 6)
Design: species or system chicken

SMILES: CC1(C)C(=O)N(Br)C(=O)N1Br [DBDMH, 1,3-dibromo-5,5-dimethylhydantoin]
- Mean Pre-Chill Minolta Value L (20 ppm group, before chilling): 58.54 a
- Mean Post-Chill Minolta Value L (20 ppm, after chilling): 53.74 a
